According to publication PMC11955523, “Cryo-TEM structure of β-glucocerebrosidase in complex with its transporter LIMP-2” (Nature Communications, 2025):
No constants are given. Whether binding was seen depends on the method and setting. Binding seen in cells or lysates may run through a third protein. Binding calls can cover weak binding; strength is not graded here.

Amino acid sequences for entries named in this document (tags omitted). A change or cut given only in a name is not applied to a line headed by its entry.
UniProt P04062: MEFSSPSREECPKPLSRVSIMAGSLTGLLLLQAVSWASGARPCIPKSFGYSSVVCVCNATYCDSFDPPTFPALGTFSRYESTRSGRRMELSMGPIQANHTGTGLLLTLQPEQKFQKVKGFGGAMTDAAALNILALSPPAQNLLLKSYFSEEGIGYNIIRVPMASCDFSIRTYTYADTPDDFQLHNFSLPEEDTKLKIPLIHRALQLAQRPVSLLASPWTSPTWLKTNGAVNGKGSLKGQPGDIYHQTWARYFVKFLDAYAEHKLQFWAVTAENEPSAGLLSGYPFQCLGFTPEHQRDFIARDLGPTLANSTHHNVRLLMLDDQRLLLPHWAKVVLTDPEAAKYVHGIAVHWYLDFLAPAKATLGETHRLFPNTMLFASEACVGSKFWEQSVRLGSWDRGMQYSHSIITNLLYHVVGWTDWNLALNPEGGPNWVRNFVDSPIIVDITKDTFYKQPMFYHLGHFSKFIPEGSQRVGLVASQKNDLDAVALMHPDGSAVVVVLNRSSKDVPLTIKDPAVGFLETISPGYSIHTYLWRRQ

Target: T1, soluble LIMP-2 shuttle construct (sLIMP-2), secreted LIMP-2 ectodomain, wild type (human) (UniProt Q14108)
T1 sequence (chain, N-glycans at N45, N68, N105, N206, N224, N249, N304, N325, N412): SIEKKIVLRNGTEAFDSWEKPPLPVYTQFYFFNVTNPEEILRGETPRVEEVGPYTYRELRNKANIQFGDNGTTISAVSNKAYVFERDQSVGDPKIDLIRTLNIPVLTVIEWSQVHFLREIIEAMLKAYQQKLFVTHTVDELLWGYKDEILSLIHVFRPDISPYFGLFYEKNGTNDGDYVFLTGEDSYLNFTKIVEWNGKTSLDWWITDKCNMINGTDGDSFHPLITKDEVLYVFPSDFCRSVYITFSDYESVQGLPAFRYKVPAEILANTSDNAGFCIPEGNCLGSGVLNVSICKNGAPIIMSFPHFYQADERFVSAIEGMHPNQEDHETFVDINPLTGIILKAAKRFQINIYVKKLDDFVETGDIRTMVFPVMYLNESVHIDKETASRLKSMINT
Experiment: pull-down; Ni-NTA beads in conditioned medium of HEK 293F cells co-expressing GCase and His-tagged sLIMP-2 (72 h), over-night at 4 °C; washes with 20 mM imidazole, elution with 400 mM imidazole, pH 7.4; read by Western blot and GCase activity of the pulldown sample

binding: binds
Substance: GCase variant p.E388K (from UniProt P04062) (enzyme)
